# Results as given in the supplement of paper PMC7666118.
# The chains behind the UniProt entries cited, without tags or fusion partners. Where a name states a change or a piece, a line headed by the entry shows the natural chain unless it says otherwise.
# UniProt Q5T2E6: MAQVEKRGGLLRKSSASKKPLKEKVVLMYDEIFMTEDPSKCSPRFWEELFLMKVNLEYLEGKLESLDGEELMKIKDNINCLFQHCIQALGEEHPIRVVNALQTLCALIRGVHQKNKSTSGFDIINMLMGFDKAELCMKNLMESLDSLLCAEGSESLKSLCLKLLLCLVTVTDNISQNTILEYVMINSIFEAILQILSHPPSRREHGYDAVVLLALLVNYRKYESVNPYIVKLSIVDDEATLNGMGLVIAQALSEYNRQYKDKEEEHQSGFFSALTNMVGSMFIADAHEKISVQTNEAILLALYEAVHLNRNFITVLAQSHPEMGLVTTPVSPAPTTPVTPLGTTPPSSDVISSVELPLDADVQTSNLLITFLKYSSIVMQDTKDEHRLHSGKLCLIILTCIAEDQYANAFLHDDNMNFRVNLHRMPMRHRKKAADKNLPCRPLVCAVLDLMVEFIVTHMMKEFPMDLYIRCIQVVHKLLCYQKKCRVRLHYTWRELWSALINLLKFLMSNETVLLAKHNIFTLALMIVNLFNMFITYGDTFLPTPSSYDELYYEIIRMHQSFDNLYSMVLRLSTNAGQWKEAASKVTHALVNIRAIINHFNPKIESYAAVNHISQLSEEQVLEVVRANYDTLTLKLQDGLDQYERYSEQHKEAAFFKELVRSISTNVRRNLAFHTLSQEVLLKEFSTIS
# UniProt Q9H6L4: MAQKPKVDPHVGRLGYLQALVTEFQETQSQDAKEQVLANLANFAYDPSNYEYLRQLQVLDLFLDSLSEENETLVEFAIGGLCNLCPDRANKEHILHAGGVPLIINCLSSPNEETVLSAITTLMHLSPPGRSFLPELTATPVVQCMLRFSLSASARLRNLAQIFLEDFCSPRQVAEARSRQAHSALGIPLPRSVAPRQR
# UniProt Q8WXE1: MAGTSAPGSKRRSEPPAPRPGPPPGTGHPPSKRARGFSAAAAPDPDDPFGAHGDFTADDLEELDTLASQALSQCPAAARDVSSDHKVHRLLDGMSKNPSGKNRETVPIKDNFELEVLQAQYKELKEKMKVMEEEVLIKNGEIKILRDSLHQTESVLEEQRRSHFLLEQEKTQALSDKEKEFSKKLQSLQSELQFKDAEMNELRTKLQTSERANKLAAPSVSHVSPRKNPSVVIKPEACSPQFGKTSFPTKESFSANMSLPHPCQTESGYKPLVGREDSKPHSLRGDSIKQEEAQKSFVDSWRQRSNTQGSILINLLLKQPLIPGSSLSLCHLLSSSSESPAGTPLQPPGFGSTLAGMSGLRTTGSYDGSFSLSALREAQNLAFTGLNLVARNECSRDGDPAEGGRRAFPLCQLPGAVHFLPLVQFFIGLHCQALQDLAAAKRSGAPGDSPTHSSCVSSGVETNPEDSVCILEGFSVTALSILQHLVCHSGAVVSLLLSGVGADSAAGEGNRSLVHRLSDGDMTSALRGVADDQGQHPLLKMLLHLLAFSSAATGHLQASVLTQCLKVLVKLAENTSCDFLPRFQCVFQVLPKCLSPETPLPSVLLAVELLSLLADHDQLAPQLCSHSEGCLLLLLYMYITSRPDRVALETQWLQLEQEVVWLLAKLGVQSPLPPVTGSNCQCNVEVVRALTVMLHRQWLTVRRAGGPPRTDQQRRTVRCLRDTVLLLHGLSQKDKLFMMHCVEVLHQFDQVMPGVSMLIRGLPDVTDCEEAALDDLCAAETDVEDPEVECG
# UniProt Q9H8M7: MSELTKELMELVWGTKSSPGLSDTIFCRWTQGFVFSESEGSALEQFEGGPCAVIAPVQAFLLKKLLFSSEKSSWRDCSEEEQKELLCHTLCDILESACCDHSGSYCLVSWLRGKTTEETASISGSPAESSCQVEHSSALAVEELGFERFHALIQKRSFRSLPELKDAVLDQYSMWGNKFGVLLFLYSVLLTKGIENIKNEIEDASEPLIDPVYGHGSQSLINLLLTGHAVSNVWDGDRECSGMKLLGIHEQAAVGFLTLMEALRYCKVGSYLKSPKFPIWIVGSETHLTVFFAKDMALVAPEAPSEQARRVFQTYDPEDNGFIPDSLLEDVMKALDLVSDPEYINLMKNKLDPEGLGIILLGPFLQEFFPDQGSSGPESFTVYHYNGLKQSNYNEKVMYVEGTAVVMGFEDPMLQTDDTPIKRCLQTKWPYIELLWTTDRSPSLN
# UniProt Q9P287, whole entry: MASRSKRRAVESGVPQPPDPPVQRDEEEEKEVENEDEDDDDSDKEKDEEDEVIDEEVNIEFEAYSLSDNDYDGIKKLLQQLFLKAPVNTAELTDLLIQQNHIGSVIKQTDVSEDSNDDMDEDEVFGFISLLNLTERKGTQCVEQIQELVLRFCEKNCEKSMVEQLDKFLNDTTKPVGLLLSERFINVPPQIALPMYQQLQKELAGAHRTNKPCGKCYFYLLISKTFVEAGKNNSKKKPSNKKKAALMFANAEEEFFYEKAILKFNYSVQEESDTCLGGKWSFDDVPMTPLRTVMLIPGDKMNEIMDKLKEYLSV
# UniProt O00193: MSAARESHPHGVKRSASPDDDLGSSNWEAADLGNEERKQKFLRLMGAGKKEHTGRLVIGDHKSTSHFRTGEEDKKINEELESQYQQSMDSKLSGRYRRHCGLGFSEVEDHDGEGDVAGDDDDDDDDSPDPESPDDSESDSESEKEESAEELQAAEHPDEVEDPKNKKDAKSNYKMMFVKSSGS
# UniProt O43521, whole entry, looked up: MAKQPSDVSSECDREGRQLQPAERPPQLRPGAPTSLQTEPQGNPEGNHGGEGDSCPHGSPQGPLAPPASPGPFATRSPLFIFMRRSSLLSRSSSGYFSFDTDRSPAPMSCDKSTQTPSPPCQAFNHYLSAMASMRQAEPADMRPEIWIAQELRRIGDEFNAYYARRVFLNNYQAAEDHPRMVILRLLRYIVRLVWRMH
# UniProt Q7L8W6: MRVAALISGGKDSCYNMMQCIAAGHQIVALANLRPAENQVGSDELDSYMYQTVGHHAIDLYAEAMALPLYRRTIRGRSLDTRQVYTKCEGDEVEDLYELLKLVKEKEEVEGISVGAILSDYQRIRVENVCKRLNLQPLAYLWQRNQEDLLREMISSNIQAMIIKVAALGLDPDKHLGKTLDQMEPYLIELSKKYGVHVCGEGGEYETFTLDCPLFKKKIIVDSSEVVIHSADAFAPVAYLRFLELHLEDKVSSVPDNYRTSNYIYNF
# UniProt Q8NHH9: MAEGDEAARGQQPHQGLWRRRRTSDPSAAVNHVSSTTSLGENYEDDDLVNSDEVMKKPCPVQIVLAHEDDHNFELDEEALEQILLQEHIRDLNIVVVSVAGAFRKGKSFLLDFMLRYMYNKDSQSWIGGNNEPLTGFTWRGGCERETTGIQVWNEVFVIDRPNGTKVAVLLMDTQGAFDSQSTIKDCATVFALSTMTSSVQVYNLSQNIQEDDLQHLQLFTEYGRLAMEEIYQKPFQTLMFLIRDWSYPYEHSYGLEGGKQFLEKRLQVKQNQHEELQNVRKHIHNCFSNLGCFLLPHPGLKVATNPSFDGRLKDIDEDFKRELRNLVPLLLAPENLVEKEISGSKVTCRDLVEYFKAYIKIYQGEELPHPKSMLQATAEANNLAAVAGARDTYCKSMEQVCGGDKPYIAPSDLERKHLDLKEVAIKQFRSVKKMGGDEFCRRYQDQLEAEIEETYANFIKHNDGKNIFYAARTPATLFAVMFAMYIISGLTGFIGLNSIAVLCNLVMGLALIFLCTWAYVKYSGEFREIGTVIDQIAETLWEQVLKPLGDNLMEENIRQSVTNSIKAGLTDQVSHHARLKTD
# UniProt Q9BXP5: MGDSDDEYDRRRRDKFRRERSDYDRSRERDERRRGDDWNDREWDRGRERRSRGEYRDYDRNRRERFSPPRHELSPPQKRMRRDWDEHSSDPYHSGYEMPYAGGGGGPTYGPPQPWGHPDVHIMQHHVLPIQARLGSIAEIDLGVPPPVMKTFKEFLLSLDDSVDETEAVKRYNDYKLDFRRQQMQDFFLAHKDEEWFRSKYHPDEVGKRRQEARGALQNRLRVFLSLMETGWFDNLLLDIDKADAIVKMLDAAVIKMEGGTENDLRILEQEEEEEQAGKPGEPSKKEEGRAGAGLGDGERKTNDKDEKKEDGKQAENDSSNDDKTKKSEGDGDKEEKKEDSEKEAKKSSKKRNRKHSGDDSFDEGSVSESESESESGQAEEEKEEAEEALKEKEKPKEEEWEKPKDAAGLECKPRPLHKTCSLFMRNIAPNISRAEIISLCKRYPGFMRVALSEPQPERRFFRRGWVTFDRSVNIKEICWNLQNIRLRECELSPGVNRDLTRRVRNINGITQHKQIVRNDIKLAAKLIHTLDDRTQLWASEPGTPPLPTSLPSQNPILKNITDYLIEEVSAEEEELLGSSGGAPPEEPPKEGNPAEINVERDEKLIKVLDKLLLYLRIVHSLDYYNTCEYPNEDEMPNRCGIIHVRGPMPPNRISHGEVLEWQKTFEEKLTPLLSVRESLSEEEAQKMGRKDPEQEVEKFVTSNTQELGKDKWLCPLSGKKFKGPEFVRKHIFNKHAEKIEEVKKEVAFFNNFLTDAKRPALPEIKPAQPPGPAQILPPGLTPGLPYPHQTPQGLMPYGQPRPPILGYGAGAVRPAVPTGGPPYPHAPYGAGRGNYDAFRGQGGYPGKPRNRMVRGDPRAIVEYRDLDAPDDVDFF
# UniProt Q8N9N2: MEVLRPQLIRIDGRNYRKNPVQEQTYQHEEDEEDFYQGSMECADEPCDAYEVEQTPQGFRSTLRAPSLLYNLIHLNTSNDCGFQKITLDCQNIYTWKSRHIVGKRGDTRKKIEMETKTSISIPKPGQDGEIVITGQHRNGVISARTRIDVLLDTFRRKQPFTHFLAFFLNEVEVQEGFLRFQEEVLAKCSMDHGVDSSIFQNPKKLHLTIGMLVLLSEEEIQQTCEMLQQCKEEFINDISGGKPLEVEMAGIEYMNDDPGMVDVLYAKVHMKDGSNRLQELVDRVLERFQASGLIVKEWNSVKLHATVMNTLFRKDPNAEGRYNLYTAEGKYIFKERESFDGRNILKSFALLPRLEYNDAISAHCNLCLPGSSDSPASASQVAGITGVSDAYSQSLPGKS
# UniProt P41223: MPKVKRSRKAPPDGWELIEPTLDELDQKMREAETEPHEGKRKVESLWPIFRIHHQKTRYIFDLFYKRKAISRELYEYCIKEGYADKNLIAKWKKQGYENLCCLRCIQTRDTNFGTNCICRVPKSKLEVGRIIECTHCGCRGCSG
# UniProt P35613: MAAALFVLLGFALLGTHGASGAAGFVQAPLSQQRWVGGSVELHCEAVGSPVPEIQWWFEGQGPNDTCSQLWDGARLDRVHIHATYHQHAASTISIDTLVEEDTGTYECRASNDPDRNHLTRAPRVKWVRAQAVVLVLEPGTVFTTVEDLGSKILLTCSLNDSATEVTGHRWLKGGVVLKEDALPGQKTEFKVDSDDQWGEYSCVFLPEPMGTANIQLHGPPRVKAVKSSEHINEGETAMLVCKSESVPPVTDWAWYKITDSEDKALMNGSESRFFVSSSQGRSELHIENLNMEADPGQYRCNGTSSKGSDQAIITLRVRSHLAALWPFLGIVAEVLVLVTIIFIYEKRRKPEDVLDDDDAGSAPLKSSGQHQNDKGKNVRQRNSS
# UniProt P02818: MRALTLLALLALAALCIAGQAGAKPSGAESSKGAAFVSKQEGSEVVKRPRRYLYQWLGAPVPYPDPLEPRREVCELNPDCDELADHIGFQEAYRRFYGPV
# UniProt Q5TC12: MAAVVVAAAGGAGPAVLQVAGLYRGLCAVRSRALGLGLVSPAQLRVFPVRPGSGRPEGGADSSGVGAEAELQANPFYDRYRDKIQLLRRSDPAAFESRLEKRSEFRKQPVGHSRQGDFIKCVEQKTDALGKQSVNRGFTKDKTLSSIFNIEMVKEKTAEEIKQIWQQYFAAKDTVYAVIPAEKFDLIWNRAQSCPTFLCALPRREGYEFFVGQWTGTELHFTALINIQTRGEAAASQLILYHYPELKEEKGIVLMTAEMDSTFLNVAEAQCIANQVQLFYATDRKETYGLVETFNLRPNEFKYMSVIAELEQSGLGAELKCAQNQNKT
# UniProt O95671: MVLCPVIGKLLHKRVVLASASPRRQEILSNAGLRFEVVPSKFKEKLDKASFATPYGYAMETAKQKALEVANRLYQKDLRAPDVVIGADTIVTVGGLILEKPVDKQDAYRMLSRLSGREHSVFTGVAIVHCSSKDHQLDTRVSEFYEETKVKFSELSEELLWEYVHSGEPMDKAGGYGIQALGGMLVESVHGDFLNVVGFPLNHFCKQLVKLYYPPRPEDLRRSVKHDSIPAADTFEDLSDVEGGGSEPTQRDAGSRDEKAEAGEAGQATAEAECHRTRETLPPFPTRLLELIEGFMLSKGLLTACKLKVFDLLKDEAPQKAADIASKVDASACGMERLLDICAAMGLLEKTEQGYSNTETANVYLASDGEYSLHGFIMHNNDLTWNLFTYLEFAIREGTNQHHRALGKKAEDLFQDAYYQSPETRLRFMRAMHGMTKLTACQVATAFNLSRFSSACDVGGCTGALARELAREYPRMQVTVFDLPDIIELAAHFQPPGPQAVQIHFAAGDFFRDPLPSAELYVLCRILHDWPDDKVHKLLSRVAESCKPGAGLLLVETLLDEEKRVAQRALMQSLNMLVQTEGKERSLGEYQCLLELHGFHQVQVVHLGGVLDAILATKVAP
# The other results are listed elsewhere or left out.
# Compound: COc1ccc(Cn2ccc3ccc(C(=O)NO)cc32)cc1
# Assay: dose-dependent thermal stabilisation call (2D-TPP, DLPTP, 10% FDR) (binary (1 = stabilised)); higher = stabilised by the compound
# Conditions: system: HL-60 intact cells; concentration range 0.04-10 µM
row,Target,dose-dependent thermal stabilisation call
1,C10ORF76 (UniProt Q5T2E6),inactive: 0
2,ARMC7 (UniProt Q9H6L4),inactive: 0
3,ATRIP (UniProt Q8WXE1),inactive: 0
4,C10ORF97 (UniProt Q9H8M7),inactive: 0
5,ATP5F1 (UniProt P24539),inactive: 0
6,BCCIP (UniProt Q9P287),inactive: 0
7,BACH1 (UniProt O14867),inactive: 0
8,BANF1 (UniProt O75531),inactive: 0
9,BDH1 (UniProt Q02338),inactive: 0
10,ATG7 (UniProt O95352),inactive: 0
11,ATP2B1 (UniProt P20020),inactive: 0
12,C10ORF118 (UniProt Q7Z3E2),inactive: 0
13,C11ORF58 (UniProt O00193),inactive: 0
14,BXDC1 (UniProt Q9H7B2),inactive: 0
15,BCL2L11 (UniProt O43521),inactive: 0
16,ATPBD4 (UniProt Q7L8W6),inactive: 0
17,ATPBD3 (UniProt Q7Z7A3),inactive: 0
18,ATL2 (UniProt Q8NHH9),inactive: 0
19,BTF3L4 (UniProt Q96K17),inactive: 0

row,Target,dose-dependent thermal stabilisation call
1,BTF3 (UniProt P20290),inactive: 0
2,ARS2 (UniProt Q9BXP5),inactive: 0
3,ARPP-19,inactive: 0
4,BAT1,inactive: 0
5,ASH2L (UniProt Q9UBL3),inactive: 0
6,ASCC1 (UniProt Q8N9N2),active: 1
7,BUD31 (UniProt P41223),inactive: 0
8,BSG (UniProt P35613),inactive: 0
9,ATP6 (UniProt P00846),inactive: 0
10,BGLAP (UniProt P02818),inactive: 0
11,ATPAF1 (UniProt Q5TC12),inactive: 0
12,C11ORF68 (UniProt Q9H3H3),inactive: 0
13,ASMTL (UniProt O95671),active: 1
14,ATXN2L (UniProt Q8WWM7),inactive: 0
15,ASNS (UniProt P08243),inactive: 0
16,ATG4B (UniProt Q9Y4P1),inactive: 0
17,BRCC3 (UniProt P46736),inactive: 0
18,ASNSD1 (UniProt Q9NWL6),inactive: 0

# Nothing new here: entries from further up.
row,Target,dose-dependent thermal stabilisation call
16,ATG4B (UniProt Q9Y4P1),inactive: 0
17,BRCC3 (UniProt P46736),inactive: 0
